Assay results as given in PubChem BioAssay AID504834 (National Center for Advancing Translational Sciences (NCATS), 2011).
Among all 320,000 compounds or so, about 22,000 (6.9%) were called active. Inconclusive results, whose numbers are uncertain, are shown with a selection of clear calls. Calls come from the whole dose curve; as a rule, active = well fitted inhibition curve with a large enough effect; inconclusive = small, poorly fitted or top-dose-only effect, or another doubt; inactive = no such curve, though single readings can be large or run the other way. Potencies of inconclusive entries are doubtful fits and often do not repeat.

Assay: Primary qHTS for delayed death inhibitors of the malarial parasite plastid, 96 hour incubation
Conditions: P. falciparum luciferase reporter growth; series mostly up to 28.7 µM; activity change, negative = inhibition: at the top concentration
Outline: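 Luminescence readout: decreased luciferase signal marks inhibited growth of reporter-expressing P. falciparum in infected red cells (2% hematocrit, 0.05% parasitemia final), exposed to compound two generations (96 h, 37 C, 5% CO2).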
% is set by controls: 0 for no effect and ±100 for the full control effect; potency is the fitted concentration of half-maximal effect.

Row | Compound | Potency | activity change, negative = inhibition
1 | O=C1OCC(CO)(CO)N=C1NNc1ccccc1Cl | inconclusive: 18.5 µM [inhibitor, single point] | –
2 | NNC(=O)C1COc2cc3ccccc3cc2O1 (stereo unspecified) | inconclusive: 18.5 µM [inhibitor, single point] | –
3 | CN1CC2(C)CN(C(c3ccccc3)c3ccccc3)CC(C)(C1)C2O (stereo unspecified) | inconclusive: 10.4 µM [inhibitor, single point] | –
4 | COc1cc(/C=C/C(=O)OCC(=O)N(C)Cc2ccccc2)ccc1O | inconclusive: 18.5 µM [inhibitor, single point] | –
5 | Cc1ccc(NN2C(=O)C=C(c3ccc(Cl)cc3)C2=O)cc1 | inconclusive: 4.65 µM [inhibitor, partial curve, poor fit] | –
6 | COCCOC(=O)C1=C(C)NC(C)=C(C(=O)OC/C=C/c2ccccc2)C1c1cccc([N+](=O)[O-])c1 (stereo unspecified) | active: 8.49 µM | –
7 | O=C(NCCCCO)c1ccc2c3c(cccc13)CC2 | inconclusive: 16.5 µM [inhibitor, single point] | –
8 | Cc1cccc(N=Nc2c(N)n[nH]c2N)c1 | inconclusive: 10.4 µM [inhibitor, partial curve, poor fit] | –
9 | C/C(=N\NC(=O)CCc1ccccc1)c1ccc(Br)cc1 | – | inactive: 3.72%
10 | N=c1ccn(Cc2cccc(Cl)c2)cc1 | inconclusive: 0.185 µM [inhibitor, full curve, poor fit] | –
11 | C=CCn1c(CCNC(=O)c2cccs2)nnc1SCC(=O)Nc1cccc(C(C)=O)c1 | active: 9.28 µM | –
12 | COCCOc1ccc(C(F)(F)F)cc1NC(=O)COC(=O)c1c(C)noc1C | active: 4.65 µM | –
13 | Cc1ccc(C(=O)OC(C)CN2CCOCC2)cc1 (stereo unspecified) | active: 5.86 µM | –
14 | CCc1ccc(NC(=O)N(C2CCC(C)CC2)C2CCN(C(C)=O)CC2)cc1 (stereo unspecified) | inconclusive: 2.08 µM [inhibitor, partial curve] | –
15 | Cc1ccc(/C=c2\sc3nc(-c4ccco4)nn3c2=O)o1 | inconclusive: 11.7 µM [inhibitor, single point] | –
16 | CC1CCCCN1CCCNC(=O)c1ccc(NC(=O)C2=CSCCO2)cc1 (stereo unspecified) | inconclusive: 18.5 µM [inhibitor, single point] | –
17 | CN(C)S(=O)(=O)c1ccc(N2CCCC2)c(C(=O)Nc2nc3ccccc3s2)c1 | – | inactive: -12.5%
18 | O=C(/C=C\c1ccco1)Nc1nc(-c2ccccc2)cs1 | – | inactive: -14.7%
19 | Nc1c(C(=O)CSc2nccn2-c2cccc(F)c2)c(=O)[nH]c(=O)n1C1CC1 | inconclusive: 10.4 µM [inhibitor, single point] | –
20 | O=C(O)CCCN1C(=O)/C(=C/c2ccncc2)SC1=S | – | inactive: -8.13%
21 | Cc1cc(C)nc(SCC(=O)N/N=C\c2sccc2C)n1 | inconclusive: 1.17 µM [inhibitor, partial curve, poor fit] | –
22 | OCCOCCn1c(-c2ccccc2)nc(=S)c2c1CCCC2 | active: 10.4 µM | –
23 | COc1ccc(NC(=O)C2CCN(S(=O)(=O)c3ccc(N4CCCC4=O)cc3)CC2)c(OC)c1 | inconclusive: 0.657 µM [inhibitor, full curve] | –

Row | Compound | Potency | activity change, negative = inhibition
24 | Cc1ccc2nc(/C(C#N)=C/c3ccc(-c4ccccc4C(=O)O)o3)[nH]c2c1 | inconclusive: 18.5 µM [inhibitor, single point] | –
25 | O=C(C(Sc1ccccc1)c1ccccc1)N1CCN(c2ccccc2)CC1 (stereo unspecified) | inconclusive: 11.7 µM [inhibitor, single point] | –
26 | CSC(=Nc1ccccc1)C(C#N)c1nc2ccccc2[nH]1 (stereo unspecified) | inconclusive: 10.4 µM [inhibitor, partial curve, poor fit] | –
27 | C=C(C)CNC(=S)Nc1cccc(S(=O)(=O)NC2=NCCC2)c1 | – | inactive: 14.8%
28 | Cc1cc(N2C(=O)C3CC=CC(C)C3C2=O)no1 (stereo unspecified) | – | inactive: 20.8%
29 | CCOC(=O)C1CCN(C(=O)C(CC)c2ccccc2)CC1 (stereo unspecified) | – | inactive: 8.93%
30 | COCCCNC(=O)c1ccc2c(=O)n(C3CCCC3)c(=S)[nH]c2c1 | inconclusive: 0.0041 µM [inhibitor, full curve, poor fit] | –
31 | O=C(Cc1cccs1)N1CCN(S(=O)(=O)c2ccc(F)c(F)c2)CC1 | inconclusive: 13.1 µM [inhibitor, partial curve, poor fit] | –
32 | O=C(c1ccoc1)N1CCC2(CC1)Oc1ccc(Cl)cc1C(=O)C21CC(c2ccccc2)=NO1 (stereo unspecified) | inconclusive: 13.1 µM [inhibitor, single point] | –
33 | Oc1ccc(-c2n[nH]c(=S)n2Cc2ccccc2)cc1 | inconclusive: 18.5 µM [inhibitor, single point] | –
34 | CCC(Sc1nnc(-c2ccco2)n1C)C(=O)Nc1nnc(C)s1 (stereo unspecified) | – | inactive: 4.13%
35 | COc1ccc(CN(C)Cc2cc(=O)oc3cc(C)c(C(C)C)cc23)cc1OC | inconclusive: 7.38 µM [inhibitor, partial curve] | –
36 | CCOc1ccc(NC(=O)Nc2cc(C(=O)O)ccc2N2CC3CC(C2)c2cccc(=O)n2C3)cc1 (stereo unspecified) | inconclusive: 18.5 µM [inhibitor, partial curve, poor fit] | –
37 | Cc1c(NC(=O)CCCOc2ccccc2)cccc1[N+](=O)[O-] | inconclusive: 16.5 µM [inhibitor, single point] | –
38 | COc1ccc(CN(C)C(=O)/C=C/c2ccc(S(=O)(=O)N3CCOCC3)cc2)cc1F | inconclusive: 2.94 µM [inhibitor, partial curve] | –
39 | O=C(Nc1cccc(O)c1)c1ccc2c(c1)C(=O)N(Cc1ccco1)C2=O | active: 9.28 µM | –
40 | Cc1ncc([N+](=O)[O-])n1S(=O)(=O)c1cc(Cl)ccc1Cl | – | inactive: -20.3%
41 | CCOC(=O)c1[nH]c2ccc(OCC)cc2c1NC(=O)CN1CCCC(C)C1 (stereo unspecified) | inconclusive: 11.7 µM [inhibitor, single point] | –
42 | CCOC(=O)C(C)Oc1ncnc2cccc(F)c12 (stereo unspecified) | – | inactive: -0.006%
43 | CCOc1cc(C)c(S(=O)(=O)NCCCn2ccnc2)cc1C | – | inactive: -27.3%
44 | Cc1ccc(-c2c(C(=O)N/N=C/c3sccc3C)nnn2-c2nonc2N)cc1 | active: 0.928 µM | –
45 | Cc1ccc(C)n1C(CC(=O)O)c1ccc(C#N)cc1 (stereo unspecified) | inconclusive: 11.7 µM [inhibitor, single point] | –
46 | CCOc1ccc(NC(=O)CN(C)C(=O)c2ccc(OCC3CCCO3)cc2)cc1OCC (stereo unspecified) | – | inactive: -0.511%

Quoted at random: 2 records from the list, in no set order.
Row | Compound | Potency | activity change, negative = inhibition
33 | Oc1ccc(-c2n[nH]c(=S)n2Cc2ccccc2)cc1 | inconclusive: 18.5 µM [inhibitor, single point] | –
44 | Cc1ccc(-c2c(C(=O)N/N=C/c3sccc3C)nnn2-c2nonc2N)cc1 | active: 0.928 µM | –
